At least one structure is not confirmed: it was looked up by name or label, or the drawing left a doubt.
Experiments:
Type in all cases: cell-based, human
[1] = system: glioblastoma PDC sample A; test: CCK-8 viable count of glioblastoma PDC sample A after drug treatment; settings: PDC sample A (MET exon 10 and exon 19 deleted), in words
Protocol: (§1) Enzymolysis was separately carried out on the four collected glioblastoma samples to obtain glioblastoma PDC samples A, B, C and D.
(§2) The glioblastoma PDC samples A, B, C and D were taken, re-suspended by using a special culture medium, and then respectively inoculated into a 96-well cell culture plate, so that each culture well contained 3000 cells. After inoculation was completed, the 96-well cell culture plate was placed in an incubator containing 5% CO2 at 37° C., and incubation was performed for 24 h. […] After the drug was added, the incubation was continued to be performed for 72 h, then the viable count in each culture well was measured by using CCK-8, and the results are shown in Table 1, Table 2, FIG. 11 and FIG. 12.

[2] = system: glioblastoma PDC sample C; test: CCK-8 viable count of glioblastoma PDC sample C after drug treatment; settings: in words
Protocol: as §1
(§3) The glioblastoma PDC samples A, B, C and D were taken, re-suspended by using a special culture medium, and then respectively inoculated into a 96-well cell culture plate, so that each culture well contained 3000 cells. After inoculation was completed, the 96-well cell culture plate was placed in an incubator containing 5% CO2 at 37° C., and incubation was performed for 24 h.

[3] = system: glioblastoma PDC sample D; test: CCK-8 viable count of glioblastoma PDC sample D after drug treatment; settings: in words
Protocol: as §1, §2

[4] = system: glioblastoma PDC sample B; test: CCK-8 viable count of glioblastoma PDC sample B after drug treatment; settings: PDC sample B (MET exon 10 deleted), in words
Protocol: as §1, §3

Cn1nnc2c(C(N)=O)ncn2c1=O [TMZ, temozolomide] was tested, and the “sensitivity of the glioblastoma PDC sample to the drug” value (from here on “sensitivity”) [1] was “insensitive”, the “sensitivity” value [2] was “sensitive” and the “sensitivity” value [3] was “sensitive”. The “sensitivity” value [4] was “insensitive”.
